The list shows only some results of the screen, not a fair sample: it is rich in T/C values a quarter to a half above the control, in often repeated tests (any T/C) and in doses without a T/C. Further doses and runs are listed elsewhere. T/C is the treated group as % of the vehicle group. Some doses have a count of surviving animals in place of a T/C: the source holds a T/C of zero for them, seemingly a mark for toxic or unscored doses. Some survivor counts are full or nearly so, which does not show that the dose was tolerated: survival well below the control is almost never listed, so the zero probably covers shortened survival too. Survivors were counted at the toxicity check, usually on the fifth day, unless a day is given; later deaths do not show. Schedule codes are those of the source, read here as Q, the interval in days (D) or hours (H), X, the number of doses. Some schedules carry Z or #; the key to these is not given. Where survival is the endpoint, this PubChem deposit counts one and a half times the control or more as active, and values a quarter to a half above the control carry no call in these data; other NCI protocols may use other cut-offs. Some entries hold several experiments; the results are listed from low to high.
System: L1210 leukemia ip in BDF1 mice, survival T/C
Assay: NCI In Vivo Anticancer Drug Screen. Data for tumor model L1210 Leukemia (intraperitoneal) in B6D2F1 (BDF1) mice
Settings: T/C endpoint: mean survival time, higher T/C = longer survival
[1] = dose: 50.0 mg/kg/injection, schedule: Q04DX002 (ip), vehicle: Klucel (hydroxypropylcellulose) (HPC)
[2] = dose: 100.0 mg/kg/injection, schedule: Q04DX002 (ip), vehicle: Klucel (hydroxypropylcellulose) (HPC)
[3] = dose: 200.0 mg/kg/injection, schedule: Q04DX002 (ip), vehicle: Klucel (hydroxypropylcellulose) (HPC)
[4] = dose: 400.0 mg/kg/injection, schedule: Q04DX002 (ip), vehicle: Klucel (hydroxypropylcellulose) (HPC)
[5] = dose: 100.0 mg/kg/injection, schedule: Q04DX003 (ip), vehicle: Klucel (hydroxypropylcellulose) (HPC)
[6] = dose: 200.0 mg/kg/injection, schedule: Q04DX003 (ip), vehicle: Klucel (hydroxypropylcellulose) (HPC)
[7] = dose: 400.0 mg/kg/injection, schedule: Q01DX009 (ip), vehicle: Klucel (hydroxypropylcellulose) (HPC)
[8] = dose: 400.0 mg/kg/injection, schedule: Q01DX001 (ip), vehicle: Klucel (hydroxypropylcellulose) (HPC)
[9] = dose: 300.0 mg/kg/injection, schedule: Q01DX001 (ip), vehicle: saline
[10] = dose: 100.0 mg/kg/injection, schedule: Q01DX009 (ip), vehicle: saline
[11] = dose: 200.0 mg/kg/injection, schedule: Q01DX009 (ip), vehicle: saline
[12] = dose: 400.0 mg/kg/injection, schedule: Q01DX009 (ip), vehicle: saline
[13] = dose: 400.0 mg/kg/injection, schedule: Q04DX003 (ip), vehicle: saline
[14] = dose: 400.0 mg/kg/injection, schedule: Q04DX003 (ip), vehicle: saline with Tween-80
[15] = dose: 200.0 mg/kg/injection, schedule: Q01DX001 (ip), vehicle: saline
[16] = dose: 50.0 mg/kg/injection, schedule: Q01DX009 (ip), vehicle: saline with Tween-80

`C[CH2][Pb]([CH2]C)([CH2]C)[O]C(=O)COc1ccccc1` was tested, and the survivor count (dose: 12.0 mg/kg/injection, schedule: Q01DX009 (ip), vehicle: Klucel (hydroxypropylcellulose) (HPC)) was 2 of 6, the survivor count [1] was 0 of 3 and the survivor count [2] was 1 of 3. The survivor count [3] was 0 of 3 and the survivor count [4] was 0 of 3.

In the case of `NC(N)=Nc1ccc(C(=O)Oc2ccc([N+](=O)[O-])cc2[N+](=O)[O-])cc1`, the survivor count [5] is reported as 0 of 6, the survivor count (dose: 200.0 mg/kg/injection, schedule: Q01DX009 (ip), vehicle: Klucel (hydroxypropylcellulose) (HPC)) is reported as 0 of 6 and the survivor count [6] is reported as 0 of 6. The survivor count (dose: 400.0 mg/kg/injection, schedule: Q04DX003 (ip), vehicle: Klucel (hydroxypropylcellulose) (HPC)) was 0 of 6.

`S=C(NCc1ccc(Cl)cc1Cl)Nc1ccccc1` was tested, and the survivor count [7] was 0 of 6.

`Nc1nc2c(ncn2-c2ccc(OCCCOc3ccc(S(=O)(=O)F)cc3)cc2)c(=O)[nH]1` was tested, and the survivor count [8] was 6 of 6.

In the case of `CCC1(c2ccccc2)C(=O)NC(=O)NC1=O`, the survivor count [9] is reported as 1 of 6.

In the case of `CCc1ncc(C)n1Cc1ccccc1`, the survivor count (dose: 50.0 mg/kg/injection, schedule: Q01DX009 (ip), vehicle: saline) is reported as 1 of 6, the survivor count [10] is reported as 0 of 6 and the survivor count [11] is reported as 0 of 6. For the same compound, the survivor count [12] was 0 of 6.

With `CN(C)c1ccc(-c2cccc[n+]2C)cc1` the survivor count [10] was 0 of 6, the survivor count [11] was 0 of 6 and the survivor count [12] was 0 of 6.

In the case of `C=CCN(C(=O)OCC)P(=O)(OCC)OCC`, the survivor count [10] is reported as 6 of 6, the survivor count [12] is reported as 0 of 6 and the survivor count [13] is reported as 0 of 6.

In the case of `O=[N+]([O-])/C=C\c1cc(Cl)c(/C=C/[N+](=O)[O-])c(Cl)c1Cl`, the survivor count (dose: 5.0 mg/kg/injection, schedule: Q01DX009 (ip), vehicle: saline) is reported as 6 of 6, the survivor count (dose: 5.0 mg/kg/injection, schedule: Q04DX003 (ip), vehicle: acetone) is reported as 6 of 6 and the survivor count (dose: 10.0 mg/kg/injection, schedule: Q01DX009 (ip), vehicle: saline) is reported as 6 of 6. The survivor count (dose: 40.0 mg/kg/injection, schedule: Q01DX001 (ip), vehicle: acetone) was 2 of 6.

For `CN(C)C=NCCOCc1ccccc1`, the survivor count [13] was 0 of 6.

In the case of `O=C(CC(O)(C(F)(F)F)C(F)(F)F)c1cccs1`, the survivor count (dose: 200.0 mg/kg/injection, schedule: Q01DX009 (ip), vehicle: saline with Tween-80) is reported as 3 of 6 and the survivor count [14] is reported as 5 of 6.

`CCOCc1nc2nc(Cl)c(Cl)nc2[nH]1` was tested, and the survivor count (dose: 100.0 mg/kg/injection, schedule: Q04DX003 (ip), vehicle: saline with Tween-80) was 6 of 6 and the survivor count [14] was 4 of 6.

With `Oc1ccc(F)c2cccnc12` the survivor count (dose: 100.0 mg/kg/injection, schedule: Q01DX001 (ip), vehicle: carboxymethylcellulose (CMC)) was 2 of 4, the survivor count (dose: 200.0 mg/kg/injection, schedule: Q01DX001 (ip), vehicle: carboxymethylcellulose (CMC)) was 0 of 4 and the survivor count (dose: 400.0 mg/kg/injection, schedule: Q01DX001 (ip), vehicle: carboxymethylcellulose (CMC)) was 0 of 4.

For `CC(=O)/C=C(/C)O`, the survivor count [13] was 6 of 6.

In the case of `O=[N+]([O-])c1c(Br)ncn1Cc1ccccc1`, the survivor count (dose: 400.0 mg/kg/injection, schedule: Q04DX003 (ip), vehicle: acetone) is reported as 1 of 6.

For `NCc1ccccn1`, the survivor count [15] was 6 of 6.

`CC(=O)c1c[nH]c2c(O)ccc(O)c12` was tested, and the survivor count (dose: 12.5 mg/kg/injection, schedule: Q04DX002 (ip), vehicle: Klucel (hydroxypropylcellulose) (HPC)) was 3 of 3 and the survivor count [1] was 1 of 3.

With `CCCCCOC(=O)C(C)(O)C(Cl)c1ccccc1` (stereo unspecified) the T/C (dose: 400.0 mg/kg/injection, schedule: Q04DX002 (ip), vehicle: saline) was 137 % of control.

`CCCCCCCCCCCCCCCOc1cc(C=O)ccc1OC` was tested, and the survivor count [8] was 6 of 6.

In the case of `O=Cc1cc(Cl)ccc1O`, the survivor count [7] is reported as 0 of 6.

In the case of `NC(CSS(=O)(=O)O)=NCCc1c[nH]c(=S)[nH]1`, the survivor count [1] is reported as 0 of 3, the survivor count [2] is reported as 0 of 3 and the survivor count [3] is reported as 0 of 3. For the same compound, the survivor count [4] was 0 of 3.

For `O=C(Nc1ccc(C2=NCCCN2)cc1)Nc1ccc(C2=NCCCN2)cc1`, the survivor count (dose: 5.0 mg/kg/injection, schedule: Q01DX Z (ip), vehicle: saline) was 6 of 6, the survivor count (dose: 6.6 mg/kg/injection, schedule: Q01DX Z (ip), vehicle: saline) was 3 of 6 and the survivor count (dose: 10.0 mg/kg/injection, schedule: Q01DX Z (ip), vehicle: saline) was 0 of 6. For the same compound, the survivor count (dose: 15.0 mg/kg/injection, schedule: Q01DX Z (ip), vehicle: saline) was 0 of 6.

In the case of `O=C1c2ccccc2C(=O)N1Nc1ccccc1`, the survivor count (dose: 50.0 mg/kg/injection, schedule: Q01DX001 (ip), vehicle: acid diluted with saline) is reported as 0 of 4, the survivor count (dose: 100.0 mg/kg/injection, schedule: Q01DX001 (ip), vehicle: acid diluted with saline) is reported as 0 of 4 and the survivor count (dose: 200.0 mg/kg/injection, schedule: Q01DX001 (ip), vehicle: acid diluted with saline) is reported as 0 of 4. The survivor count (dose: 400.0 mg/kg/injection, schedule: Q01DX001 (ip), vehicle: acid diluted with saline) was 0 of 4.

In the case of `CCCCC(/C=C/c1ccc2ccccc2n1)CC` (stereo unspecified), the survivor count [15] is reported as 2 of 4 and the survivor count (dose: 400.0 mg/kg/injection, schedule: Q01DX001 (ip), vehicle: saline) is reported as 0 of 4.

In the case of `C=CCCCCCCCCC(N)=O`, the T/C (dose: 100.0 mg/kg/injection, schedule: Q01DX009 (ip), vehicle: saline with Tween-80) is reported as 149 % of control.

With `CCOC(=O)CC1COC(=O)C1C(=O)OCC` (stereo unspecified) the survivor count [16] was 3 of 6.

`COc1cccc2c1C(=O)c1c(O)c3c(c(O)c1C2=O)C[C@@](O)(/C(C)=N/N1CCCCC1)C[C@@H]3OC1CC(N)C(O)C(C)O1` (stereo partly specified) was tested, and the T/C (dose: 1.0 mg/kg/injection, schedule: Q01DX009 (ip), vehicle: water) was 126 and 127 % of control, the T/C (dose: 2.0 mg/kg/injection, schedule: Q01DX009 (ip), vehicle: water) was 142 % of control and the T/C (dose: 2.0 mg/kg/injection, schedule: Q04DX003 (ip), vehicle: water) was 128 and 134 % of control. For the same compound, the T/C (dose: 4.0 mg/kg/injection, schedule: Q04DX003 (ip), vehicle: water) was 131 % of control, the survivor count (dose: 8.0 mg/kg/injection, schedule: Q01DX009 (ip), vehicle: water) was 4 of 10 and the T/C (dose: 8.0 mg/kg/injection, schedule: Q04DX003 (ip), vehicle: water) was 127 % of control. The survivor count (dose: 12.5 mg/kg/injection, schedule: Q01DX009 (ip), vehicle: saline with Tween-80) was 9 of 10, the survivor count (dose: 25.0 mg/kg/injection, schedule: Q01DX009 (ip), vehicle: saline with Tween-80) was 0 of 10 and the survivor count [16] was 0 of 10.

With `NC1CCCCC1.[O]=[Cr](=[O])([OH])[OH]` the survivor count (dose: 50.0 mg/kg/injection, schedule: Q01DX009 (ip), vehicle: saline sonified) was 3 of 6, the survivor count [5] was 4 of 6 and the survivor count (dose: 150.0 mg/kg/injection, schedule: Q01DX001 (ip), vehicle: saline) was 0 of 6. For the same compound, the survivor count [6] was 0 of 6 and the survivor count [9] was 0 of 6.

With `O=NN(CCCl)C(=O)NC1(C(=O)O)CCCC1` the T/C (dose: 36.0 mg/kg/injection, schedule: Q01DX001 (ip), vehicle: saline with Tween-80) was 140 % of control, the T/C (dose: 50.0 mg/kg/injection, schedule: Q01DX001 (ip), vehicle: carboxymethylcellulose (CMC)) was 129 % of control and the T/C (dose: 54.0 mg/kg/injection, schedule: Q01DX001 (ip), vehicle: saline with Tween-80) was 133 % of control. For the same compound, the survivor count (dose: 400.0 mg/kg/injection, schedule: Q01DX001 (ip), vehicle: saline with Tween-80) was 9 of 10.

— PubChem BioAssay AID248 (DTP/NCI, 2004)
